# In PubChem BioAssay AID1035470 (Broad Institute, 2014):
# Fewer than 10 of roughly 1,800 compounds were called active. Another 16% or so got no clear call; they are omitted.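 The calls were made as follows: active = compound lowering the normal-ribosome reporter at least twice as much as the humanized-ribosome reporter, growth loss under a set limit; inconclusive = no clear call, values can overlap the other calls; inactive = the rest.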 The list shows a part of the results, in another mix than the full data. Potency and affinity values are given separately.
# Assay: growth inhibition of wild-type GFP E. coli versus G2058-humanized strain, dose response, G2058 mutant RFP vs wild-type GFP, cherry-pick, two tests (AID 1035470)
# Conditions: E. coli WT-GFP vs G2058-humanized RFP, fluorescence, 24 h; at 50 µM (top of the series)
row,Compound,"activity change, negative = inhibition"
1,CC(=O)OC1N=C(c2ccccc2Cl)c2cc(Br)ccc2NC1=O (stereo not given),inactive: -22.6
2,CN1CCC(c2c[nH]c3ccccc23)C1 (stereo not given),inactive: -6.44
3,Cc1c(C(=O)Nc2ccccc2)c2cc(O)ccc2n1Cc1ccccc1,inactive: -6.47
4,O=[N+]([O-])c1ccc(N2CCOCC2)c2c1no[n+]2[O-],inactive: -8.5
5,Oc1ccc2c3c1OC1c4oc5ccccc5c4C[C@@]4(O)[C@@H](C2)N(CC2CC2)CC[C@]314 (stereo not given in full),inactive: -14.5
6,Oc1c(Br)cc(Br)cc1Br,inactive: -9.83
7,CC(C)CCn1c(N)c(C(=O)NCc2cccs2)c2nc3ccccc3nc21,inactive: 22.2
8,CC(C)Cc1nc(N2CCNCC2)c(C#N)c2c1CCC2,inactive: -9.91
9,O=C1CC(=O)N(Cc2ccccc2)C(=O)N1CCCCCCN1C(=O)CC(=O)N(Cc2ccccc2)C1=O,inactive: 3.66
10,c1ccc(Nc2ccc3ccccc3c2)cc1,inactive: -12.3
